According to PubChem BioAssay AID328 (DTP/NCI, 2004):
The list does not hold the whole screen: it is rich in T/C values a quarter to a half above the control, in often repeated tests (any T/C) and in doses without a T/C. Other doses and runs of a compound stand elsewhere. T/C: endpoint of the treated group in % of that of the vehicle group. Some entries give survivors of the animals treated and no T/C: the source holds a T/C of zero for them, seemingly a mark for toxic or unscored doses. Some doses without a T/C left all or most animals alive at the check, yet need not have been tolerated: the source hardly ever lists a survival T/C far under the control, and the zero likely stands for such cases as well. Survivors were counted at the toxicity check, usually on the fifth day, unless a day is given; later deaths do not show. Schedules are NCI's codes, read here as Q, the interval in days (D) or hours (H), X, the number of doses. For survival time, the PubChem record calls one and a half times the control and up active, and a quarter to a half above the control has no call in these data; cut-offs in other NCI protocols can differ. Some entries were tested several times; the values are given in rising order.

Test system: BDF1 mice, P388 leukemia ip, median survival T/C
Assay: NCI In Vivo Anticancer Drug Screen. Data for tumor model P388 Leukemia (intraperitoneal) in B6D2F1 (BDF1) mice
Details: T/C endpoint: median survival time, higher T/C = longer survival
Summary of the method: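 In tumour-bearing mice, survival after compound treatment is set against the vehicle group and given as a quotient.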

[1] = dose: 200.0 mg/kg/injection, schedule: Q01DX009 (ip), vehicle: saline with Tween-80
[2] = dose: 100.0 mg/kg/injection, schedule: Q01DX009 (ip), vehicle: saline with Tween-80
[3] = dose: 200.0 mg/kg/injection, schedule: Q01DX009 (ip), vehicle: other
[4] = dose: 50.0 mg/kg/injection, schedule: Q01DX009 (ip), vehicle: saline

In the case of CCOC(=O)/C(=C(/N)C1OC(COC(c2ccccc2)(c2ccccc2)c2ccccc2)C2OC(C)(C)OC12)C1CC(=O)N(C)C1=O (stereo unspecified), the survivor count [1] was 6 of 6.
CCSC(C(O)C(O)C(O)C(O)CO)n1ccc(=O)[nH]c1=O (stereo unspecified) was tested, and the survivor count (dose: 100.0 mg/kg/injection, schedule: Q01DX001 (ip), vehicle: saline) was 6 of 6, the survivor count (dose: 200.0 mg/kg/injection, schedule: Q01DX001 (ip), vehicle: saline) was 6 of 6 and the survivor count (dose: 400.0 mg/kg/injection, schedule: Q01DX001 (ip), vehicle: saline) was 6 of 6.
In the case of COc1cc2c3c(c4ccc(OC)c(OC)c4c2cc1OC)CN1CCC[C@@H]1C3, the T/C (dose: 4.0 mg/kg/injection, schedule: Q01DX010 (ip), vehicle: water) was 140 % of control, the T/C (dose: 5.0 mg/kg/injection, schedule: Q01DX010 (ip), vehicle: saline) was 127 % of control and the survivor count (dose: 10.0 mg/kg/injection, schedule: Q01DX010 (ip), vehicle: water) was 4 of 6. The survivor count (dose: 12.5 mg/kg/injection, schedule: Q01DX010 (ip), vehicle: water) was 6 of 6.
With Cn1c(Cl)nc2c(Cl)nc(Cl)nc21 the survivor count (dose: 32.0 mg/kg/injection, schedule: Q01DX009 (ip), vehicle: Klucel (hydroxypropylcellulose) (HPC)) was 2 of 6.
In the case of CCCCNC(C)(C)C(SSSC(C)=O)c1ccco1 (stereo unspecified), the survivor count (dose: 6.25 mg/kg/injection, schedule: Q01DX009 (ip), vehicle: saline with Tween-80) was 6 of 6, the survivor count (dose: 12.5 mg/kg/injection, schedule: Q01DX009 (ip), vehicle: saline with Tween-80) was 6 of 6 and the survivor count [2] was 4 of 6.
O=C1NNC(c2ccccc2)C1(Cl)Cl (stereo unspecified) was tested, and the survivor count (dose: 50.0 mg/kg/injection, schedule: Q01DX009 (ip), vehicle: saline with Tween-80) was 4 of 6.
With CN=C(NC(C)C)c1ccc(NC(=O)c2ccc(C(=O)Nc3ccc(C(=NC)NC(C)C)cc3)cc2)cc1 the T/C (dose: 32.0 mg/kg/injection, schedule: Q04DX003 (ip), vehicle: saline with Tween-80) was 131 % of control and the T/C (dose: 64.0 mg/kg/injection, schedule: Q04DX003 (ip), vehicle: saline with Tween-80) was 136 % of control.
O=C(NC1=NN(c2ccccc2)C(=O)C1)c1ccccc1 was tested, and the survivor count (dose: 75.0 mg/kg/injection, schedule: Q01DX009 (ip), vehicle: saline with Tween-80) was 6 of 6.
In the case of CCOc1cc(/C=N\Nc2nncn2N)ccc1N(CCCl)CCCl, the T/C (dose: 1.3 mg/kg/injection, schedule: Q04DX003 (ip), vehicle: saline with Tween-80) was 145 % of control, the T/C (dose: 2.0 mg/kg/injection, schedule: Q04DX003 (ip), vehicle: saline with Tween-80) was 140 % of control and the T/C (dose: 3.0 mg/kg/injection, schedule: Q04DX003 (ip), vehicle: saline with Tween-80) was 146 % of control. For the same compound, the survivor count (dose: 60.0 mg/kg/injection, schedule: Q04DX003 (ip), vehicle: saline with Tween-80) was 4 of 6.
COc1ccc(NC(=O)Oc2ccc3c(C)cc(=O)oc3c2)c(OC)c1 was tested, and the T/C [2] was 145 % of control.
For CCOC(=O)N(C)C(C)Cc1ccccc1 (stereo unspecified), the T/C [1] was 125 % of control.
With CCN(CC)c1ccc(N)cc1 the survivor count (dose: 50.0 mg/kg/injection, schedule: Q01DX009 (ip), vehicle: other) was 0 of 6, the survivor count (dose: 100.0 mg/kg/injection, schedule: Q01DX009 (ip), vehicle: other) was 0 of 6 and the survivor count [3] was 0 of 6. For the same compound, the survivor count (dose: 400.0 mg/kg/injection, schedule: Q01DX009 (ip), vehicle: other) was 0 of 6.
For CS(=O)(=O)OCc1c(O)c2c(c(O)c1COS(C)(=O)=O)C(=O)C=CC2=O, the survivor count (dose: 200.0 mg/kg/injection, schedule: Q04DX003 (ip), vehicle: water) was 3 of 6 and the survivor count (dose: 400.0 mg/kg/injection, schedule: Q04DX003 (ip), vehicle: water) was 5 of 6.
For C[NH-].C[NH-].[I][Pt+2][I], the T/C (dose: 6.25 mg/kg/injection, schedule: Q04DX003 (ip), vehicle: other) was 137 % of control and the T/C (dose: 25.0 mg/kg/injection, schedule: Q04DX003 (ip), vehicle: other) was 136 and 137 % of control.
CCOC(=O)C(C(C)=O)C(=O)OCC was tested, and the survivor count [3] was 6 of 6.
For CC1NCCNCCNCCNC(C)c2cccc1n2 (stereo unspecified), the survivor count [4] was 1 of 6.
With C1CN1P1(N2CC2)=NP(N2CC2)(N2CC2)=NP(N2CC2)(N2CC2)=N1 the T/C (dose: 1.4 mg/kg/injection, schedule: Q01DX009 (ip), vehicle: saline) was 127 % of control and the survivor count (dose: 5.0 mg/kg/injection, schedule: Q01DX009 (ip), vehicle: saline) was 6 of 6.
With CC(=O)[C@@]1(O)CC[C@H]2[C@@H]3C[C@H](C)C4=CC(=O)CC[C@]4(C)[C@H]3[C@@H](O)C[C@@]21C the T/C [2] was 127 % of control.
With C=CC(=O)NC12CC3CC(CC(C3)C1)C2 the survivor count (dose: 400.0 mg/kg/injection, schedule: Q04DX003 (ip), vehicle: saline with Tween-80) was 6 of 6.
With C[C@]12CC[C@H](O)C=C1CC[C@@H]1[C@@H]2CC[C@]2(C)C(c3ccc(=O)oc3)CC[C@]12O (stereo partly specified) the survivor count (dose: 25.0 mg/kg/injection, schedule: Q01DX009 (ip), vehicle: Klucel (hydroxypropylcellulose) (HPC)) was 3 of 6 and the survivor count (dose: 50.0 mg/kg/injection, schedule: Q01DX009 (ip), vehicle: Klucel (hydroxypropylcellulose) (HPC)) was 0 of 6.
For Clc1ccc(N=Cc2cccs2)cc1, the survivor count (dose: 25.0 mg/kg/injection, schedule: Q01DX009 (ip), vehicle: saline with Tween-80) was 6 of 6.
For COc1ccc(CNc2ncccn2)cc1, the survivor count (dose: 100.0 mg/kg/injection, schedule: Q01DX009 (ip), vehicle: Klucel (hydroxypropylcellulose) (HPC)) was 6 of 6, the survivor count (dose: 400.0 mg/kg/injection, schedule: Q01DX009 (ip), vehicle: Klucel (hydroxypropylcellulose) (HPC)) was 6 of 6 and the survivor count (dose: 400.0 mg/kg/injection, schedule: Q04DX003 (ip), vehicle: Klucel (hydroxypropylcellulose) (HPC)) was 6 of 6.
CN1CC(C(=O)N2CCCCC2)C=C2c3cccc4[nH]cc(c34)CC21 (stereo unspecified) was tested, and the survivor count (dose: 25.0 mg/kg/injection, schedule: Q01DX009 (ip), vehicle: saline) was 5 of 6, the survivor count [4] was 5 of 6 and the survivor count (dose: 100.0 mg/kg/injection, schedule: Q01DX009 (ip), vehicle: saline) was 3 of 6. For the same compound, the survivor count (dose: 100.0 mg/kg/injection, schedule: Q04DX003 (ip), vehicle: saline) was 5 of 6 and the survivor count (dose: 200.0 mg/kg/injection, schedule: Q04DX003 (ip), vehicle: saline) was 1 of 6.
In the case of CCCC1CCC(=C2C(=O)CCC2=O)O1 (stereo unspecified), the T/C (dose: 100.0 mg/kg/injection, schedule: Q04DX002 (ip), vehicle: saline) was 137 % of control.
For Nc1ccc2nc3ccccc3c(NCCCCCCCCNc3c4ccccc4nc4ccc(N)cc34)c2c1, the T/C (dose: 0.63 mg/kg/injection, schedule: Q01DX009 (ip), vehicle: water) was 149 % of control, the T/C (dose: 1.25 mg/kg/injection, schedule: Q01DX009 (ip), vehicle: water) was 149 % of control and the T/C (dose: 5.0 mg/kg/injection, schedule: Q01DX009 (ip), vehicle: water) was 135 % of control.
